{"source": "PubChem BioAssay AID180", "about": "(DTP/NCI, 2004)", "test_system": "BDF1 mice, Adenocarcinoma 755 s.c., tumor weight T/C", "test": "NCI In Vivo Anticancer Drug Screen. Data for tumor model Adenocarcinoma 755 (subcutaneous) in B6D2F1 (BDF1) mice", "conditions": "T/C endpoint: mean tumor weight, evaluation day not shown, higher T/C = larger tumour", "how_it_was_run": "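Tumor-bearing mice receive test compound while controls get vehicle alone. Antitumor effect is scored from survival or tumor dimensions as a T/C quotient.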", "note": "The list is a part of this screen's results and no random one: its compounds were picked by chemical class. Other doses and runs of a compound may be missing. T/C: endpoint of the treated group in % of that of the vehicle group. Some T/C values are marked as having no survivor count here; that says nothing about deaths at the dose. Schedule codes are those of the source, read here as Q, the interval in days (D) or hours (H), X, the number of doses. Some entries hold several experiments; their values stand side by side, smallest first. Some schedule codes hold Z or #, which are not explained here."}
{"smiles": "NC(Cc1ccccc1N(CCCl)CCCl)C(=O)O", "note": "(stereo not drawn)", "values": [{"measurement": "T/C", "setting": "dose: 0.19 mg/kg/injection, schedule: Q#A X022 (ip), vehicle: carboxymethylcellulose (CMC)", "result": "59 % of control [survivor count not shown]"}, {"measurement": "T/C", "setting": "dose: 0.25 mg/kg/injection, schedule: Q01DX011 (ip), vehicle: methylcellulose (MC)", "result": "66 % of control [survivor count not shown]"}, {"measurement": "T/C", "setting": "dose: 0.37 mg/kg/injection, schedule: Q#A X022 (ip), vehicle: carboxymethylcellulose (CMC)", "result": "13 % of control [survivor count not shown]"}, {"measurement": "T/C", "setting": "dose: 0.38 mg/kg/injection, schedule: Q01DX011 (ip), vehicle: carboxymethylcellulose (CMC)", "result": "63 % of control [survivor count not shown]"}, {"measurement": "T/C", "setting": "dose: 0.38 mg/kg/injection, schedule: Q01DX011 (oral), vehicle: saline", "result": "62 % of control [survivor count not shown]"}, {"measurement": "T/C", "setting": "dose: 0.5 mg/kg/injection, schedule: Q01DX011 (ip), vehicle: methylcellulose (MC)", "result": "17 % of control [survivor count not shown]"}, {"measurement": "T/C", "setting": "dose: 0.75 mg/kg/injection, schedule: Q01DX011 (ip), vehicle: carboxymethylcellulose (CMC)", "result": "11 % of control [survivor count not shown]"}, {"measurement": "T/C", "setting": "dose: 0.75 mg/kg/injection, schedule: Q01DX011 (oral), vehicle: saline", "result": "32 % of control [survivor count not shown]"}, {"measurement": "T/C", "setting": "dose: 0.75 mg/kg/injection, schedule: Q#A X022 (ip), vehicle: carboxymethylcellulose (CMC)", "result": "3 % of control [survivor count not shown]"}, {"measurement": "T/C", "setting": "dose: 1.0 mg/kg/injection, schedule: Q01DX011 (ip), vehicle: methylcellulose (MC)", "result": "5 % of control [survivor count not shown]"}, {"measurement": "T/C", "setting": "dose: 1.14 mg/kg/injection, schedule: Q03DX004 (ip), vehicle: carboxymethylcellulose (CMC)", "result": "51 % of control [survivor count not shown]"}, {"measurement": "T/C", "setting": "dose: 1.5 mg/kg/injection, schedule: Q01DX011 (ip), vehicle: carboxymethylcellulose (CMC)", "result": "2 % of control [survivor count not shown]"}, {"measurement": "T/C", "setting": "dose: 1.5 mg/kg/injection, schedule: Q01DX011 (oral), vehicle: carboxymethylcellulose (CMC)", "result": "10 % of control [survivor count not shown]"}, {"measurement": "T/C", "setting": "dose: 1.5 mg/kg/injection, schedule: Q01DX011 (oral), vehicle: saline", "result": "4 % of control [survivor count not shown]"}, {"measurement": "T/C", "setting": "dose: 2.0 mg/kg/injection, schedule: Q01DX011 (ip), vehicle: methylcellulose (MC)", "result": "5 % of control [survivor count not shown]"}, {"measurement": "T/C", "setting": "dose: 2.25 mg/kg/injection, schedule: Q03DX004 (ip), vehicle: carboxymethylcellulose (CMC)", "result": "18 % of control [survivor count not shown]"}, {"measurement": "T/C", "setting": "dose: 3.0 mg/kg/injection, schedule: Q01DX011 (oral), vehicle: carboxymethylcellulose (CMC)", "result": "1 % of control [survivor count not shown]"}, {"measurement": "T/C", "setting": "dose: 3.0 mg/kg/injection, schedule: Q01DX011 (oral), vehicle: saline", "result": "3 % of control [survivor count not shown]"}]}
{"smiles": "O=P(Cl)(Cl)N(CCF)CCF", "values": [{"measurement": "T/C", "setting": "dose: 0.15 mg/kg/injection, schedule: Q01DX011 (ip), vehicle: saline", "result": "64 % of control [survivor count not shown]"}, {"measurement": "T/C", "setting": "dose: 0.31 mg/kg/injection, schedule: Q01DX011 (ip), vehicle: saline", "result": "120 % of control [survivor count not shown]"}, {"measurement": "T/C", "setting": "dose: 0.63 mg/kg/injection, schedule: Q01DX011 (ip), vehicle: saline", "result": "86 % of control [survivor count not shown]"}, {"measurement": "T/C", "setting": "dose: 1.25 mg/kg/injection, schedule: Q01DX011 (ip), vehicle: saline", "result": "34 [survivor count not shown] and 83 % of control [survivor count not shown]"}, {"measurement": "T/C", "setting": "dose: 2.5 mg/kg/injection, schedule: Q01DX011 (ip), vehicle: saline", "result": "55 % of control [survivor count not shown]"}]}
